Where a name gives a salt, the structure may show the parent alone. The list shows a part of the results. This data set is noisy: repeats of one test often differ as much as different tests do.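 The human kidney-derived cells carry a stably integrated construct of eight TEAD-binding elements driving luciferase, read by luminescence in a drug-repurposing library screen. A compound counts as a hit when its signal is more than five robust Z scores above the plate mean.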
Test system: HEK293A TEAD-LUC reporter
Assay: TEAD-luciferase reporter activity (YAP activation), robust Z score vs plate; higher = stronger YAP/TEAD activation
Conditions: 24 h

SMILES | TEAD-luciferase reporter activity (compound concentration: 200 nM) | TEAD-luciferase reporter activity (compound concentration: 10 uM) | TEAD-luciferase reporter activity (compound concentration: 2 uM)
NCCc1ccc(O)c(O)c1 [Intropin] | inactive: 4.79 | inactive: -0.569 | –
NCCc1ccc(O)c(O)c1 [dopamine, Kowa] | – | – | inactive: -0.0909
NC(=O)N1c2ccccc2CC(O)c2ccccc21 (centres undefined) [licarbazepine] | inactive: -1.95 | inactive: 0.508 | inactive: 0.625
CC(=O)N1Cc2ccccc2CC2(CCCCN2C)C1 (centres undefined) | inactive: -0.682 | inactive: -0.494 | –
Cc1nc2sccn2c(=O)c1CCN1CCC(=C(c2ccc(F)cc2)c2ccc(F)cc2)CC1 [Ritanserin] | inactive: -0.372 | inactive: -3.18 | inactive: -1.02
C#CC(C)(CC)OC(=O)c1ccccc1C(=O)O (centres undefined) [Phthalofyne] | inactive: -0.0522 | inactive: 1.17 | –
CC/C(=C(\c1ccc(I)cc1)c1ccc(OCCN2CCCC2)cc1)c1ccccc1 [Idoxifene] | inactive: 3.24 | inactive: -1.36 | inactive: -0.492
CC=CCC(C)c1cc(=O)c2c(C)cc3c(c2o1)C(=O)c1c(O)c(C2CC(C)(N(C)C)C(O)C(C)O2)cc(C2CC(N(C)C)C(O)C(C)O2)c1C3=O (centres undefined) | inactive: -0.322 | inactive: -0.435 | inactive: -1.11
CN(C)CCOC(c1cccs1)c1ccnn1C (centres undefined) [Dilopetine] | inactive: -0.939 | inactive: 1.41 | inactive: -1.1
NNc1cc2c(nn1)CCN(C(=O)c1ccccc1)C2 [Endralazine] | inactive: -0.0194 | inactive: -1.42 | inactive: -0.712
CCOCC(O)COc1ccc(NC(=O)CC[S+](C)C)cc1 (centres undefined) [suplatast tosilate] | inactive: -2.67 | inactive: -1.08 | inactive: 0.186
CO[C@@H]1[C@H](OC(=O)/C=C/c2ccc(OCCN(C)C)cc2)CC[C@]2(CO2)[C@H]1[C@]1(C)OC1CC=C(C)C (some centres undefined) [beloranib hemioxalate] | inactive: -0.852 | inactive: -1.03 | inactive: -1.03
Brc1c(NC2=NCCN2)ccc2nccnc12 | inactive: -0.87 | inactive: 1.21 | inactive: 0.422
Brc1c(NC2=NCCN2)ccc2nccnc12 [brimonidine tartrate] | – | – | inactive: -0.519
Brc1c(NC2=NCCN2)ccc2nccnc12 [brimonidine] | – | – | inactive: -1.96
CCN1CCN(Cc2ccc(-c3cc4c(N[C@H](C)c5ccccc5)ncnc4[nH]3)cc2)CC1 | inactive: 0.215 | inactive: -2.28 | inactive: -1.8
CNC(=O)c1cccc2c(Nc3ccc(NS(C)(=O)=O)cc3OC)c3cccc(C)c3nc12 | inactive: -2.03 | inactive: -0.133 | inactive: -0.162
O=C(Cn1ccnc1[N+](=O)[O-])NCc1ccccc1 [benznidazole] | inactive: -1.87 | inactive: -0.37 | inactive: -1.02
COc1ccc(CCNC(=O)c2ccc([N+](=O)[O-])cc2)cc1OC | inactive: 0.753 | inactive: -0.656 | inactive: -0.799
O=C1[O][Pt-2]2([NH2+]CC(CO)(CO)C[NH2+]2)[O]C(=O)C12CCC2 [Zeniplatin] | inactive: 0.457 | inactive: 0.598 | inactive: -0.119

Taken from above:
Brc1c(NC2=NCCN2)ccc2nccnc12 | TEAD-luciferase reporter activity (compound concentration: 2 uM): inactive: 0.422
Brc1c(NC2=NCCN2)ccc2nccnc12 [brimonidine tartrate] | TEAD-luciferase reporter activity (compound concentration: 2 uM): inactive: -0.519
CCN1CCN(Cc2ccc(-c3cc4c(N[C@H](C)c5ccccc5)ncnc4[nH]3)cc2)CC1 | TEAD-luciferase reporter activity (compound concentration: 200 nM): inactive: 0.215

Further results.

SMILES | TEAD-luciferase reporter activity (compound concentration: 200 nM) | TEAD-luciferase reporter activity (compound concentration: 10 uM) | TEAD-luciferase reporter activity (compound concentration: 2 uM)
CCCCNC(=O)NS(=O)(=O)c1ccc(C)cc1 | inactive: -1.11 | inactive: 0.0809 | –
CCCCNC(=O)NS(=O)(=O)c1ccc(C)cc1 [Tolbutamide] | – | – | inactive: 0.81
Cn1cc(NC(=O)c2cc(NC(=O)c3cc(NC=O)cn3C)cn2C)cc1C(=O)NCCC(=N)N | inactive: 0.49 | inactive: -0.503 | inactive: 0.509
Nc1nc2c(Cc3ccsc3)c(N)[nH]c2c(=O)[nH]1 | inactive: -0.391 | inactive: 3.88 | inactive: -0.542
CCCCCCCCCCOc1ccc(C(=O)Nc2cc(C(=O)NCCCC)ccc2SC)cc1 | inactive: -1.19 | inactive: 0.989 | inactive: -0.813
CS(=O)(=O)Nc1ccc(C(O)CNCC2CCc3ccccc3C2=O)cc1 (centres undefined) | inactive: -1.53 | inactive: -0.669 | inactive: -0.029
CC#CCOc1cc(/C=C/C(=O)Nc2ccccc2C(=O)O)ccc1OC | inactive: -1.65 | inactive: -1.04 | inactive: -2.11
O=C1NC(=O)C2(N1)c1cc(F)ccc1-c1ccc(F)cc12 | inactive: -1.26 | inactive: 0.193 | inactive: -0.972
CCOC(=O)[C@H](C)NP(=O)(COCCn1cnc2c(NC3CC3)nc(N)nc21)N[C@@H](C)C(=O)OCC | inactive: 2.42 | inactive: -0.549 | inactive: -1.22
C[C@@H](c1ccc2c(c1)[nH]c1ccccc12)n1ccnc1 | inactive: -1.02 | inactive: -1.06 | inactive: -0.648
CCC(C)(C)NCC(O)COc1ccccc1C#N (centres undefined) [Penirolol] | inactive: 0.472 | inactive: 4.59 | inactive: -0.466
Clc1ccc2c(c1)C(c1ccccc1Cl)=NCc1cncnc1-2 | inactive: -2.33 | inactive: 1.32 | inactive: -0.431
CC(COc1ccccc1)NN (centres undefined) | inactive: -0.46 | inactive: -0.288 | inactive: -2.11
O=C(C1CCCC1)N1CCCN(c2nc3ncccc3o2)CC1 | inactive: -0.964 | inactive: 4.21 | –
CCCCCCCCCCCCCC[N+](C)(C)CCC[Si](OC)(OC)OC | inactive: -1.32 | inactive: 3.44 | inactive: 0.222
CCCCCCCC/C=C\CCCCCCCC(=O)OC(CO)CO [2-Oleoylglycerol] | inactive: -1.72 | inactive: 1.13 | inactive: 1.14
OB1OCc2cc(Cl)ccc21 | inactive: -0.543 | inactive: -1.04 | inactive: -0.673
CC1=C(Nc2ccc(C3=NNC(=O)CC3C)cc2)CCC1=O (centres undefined) | inactive: -0.728 | inactive: -1.51 | inactive: -0.375
C[C@@H]1CCN(C(=O)CC#N)C[C@@H]1N(C)c1ncnc2[nH]ccc12 [tofacitinib (controlled release)] | inactive: -0.182 | inactive: 0.825 | inactive: -1.66

— the supplement of paper PMC10735217
